Test results from PMC8629386.
Results are given in words; binding and its absence hold for the method and conditions named. Binding seen in cells or lysates may run through a third protein. Here binding means that the protein was enriched with, or labelled near, the bait; the list need not be complete.

The chains behind the UniProt entries cited, without tags or fusion partners. Where a name states a change or a piece, a line headed by the entry shows the natural chain unless it says otherwise.
UniProt Q8I1T8: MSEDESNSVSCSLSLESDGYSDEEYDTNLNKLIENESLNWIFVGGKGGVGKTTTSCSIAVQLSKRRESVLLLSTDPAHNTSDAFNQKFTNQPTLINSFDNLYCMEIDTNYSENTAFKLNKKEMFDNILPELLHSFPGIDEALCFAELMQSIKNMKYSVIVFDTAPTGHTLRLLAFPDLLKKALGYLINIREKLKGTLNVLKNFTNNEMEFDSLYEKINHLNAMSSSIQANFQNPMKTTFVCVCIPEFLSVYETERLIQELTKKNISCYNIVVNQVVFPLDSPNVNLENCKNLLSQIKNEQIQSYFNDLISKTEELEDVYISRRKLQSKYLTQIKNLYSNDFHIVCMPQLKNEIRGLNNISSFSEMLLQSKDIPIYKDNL
UniProt C0H4S2: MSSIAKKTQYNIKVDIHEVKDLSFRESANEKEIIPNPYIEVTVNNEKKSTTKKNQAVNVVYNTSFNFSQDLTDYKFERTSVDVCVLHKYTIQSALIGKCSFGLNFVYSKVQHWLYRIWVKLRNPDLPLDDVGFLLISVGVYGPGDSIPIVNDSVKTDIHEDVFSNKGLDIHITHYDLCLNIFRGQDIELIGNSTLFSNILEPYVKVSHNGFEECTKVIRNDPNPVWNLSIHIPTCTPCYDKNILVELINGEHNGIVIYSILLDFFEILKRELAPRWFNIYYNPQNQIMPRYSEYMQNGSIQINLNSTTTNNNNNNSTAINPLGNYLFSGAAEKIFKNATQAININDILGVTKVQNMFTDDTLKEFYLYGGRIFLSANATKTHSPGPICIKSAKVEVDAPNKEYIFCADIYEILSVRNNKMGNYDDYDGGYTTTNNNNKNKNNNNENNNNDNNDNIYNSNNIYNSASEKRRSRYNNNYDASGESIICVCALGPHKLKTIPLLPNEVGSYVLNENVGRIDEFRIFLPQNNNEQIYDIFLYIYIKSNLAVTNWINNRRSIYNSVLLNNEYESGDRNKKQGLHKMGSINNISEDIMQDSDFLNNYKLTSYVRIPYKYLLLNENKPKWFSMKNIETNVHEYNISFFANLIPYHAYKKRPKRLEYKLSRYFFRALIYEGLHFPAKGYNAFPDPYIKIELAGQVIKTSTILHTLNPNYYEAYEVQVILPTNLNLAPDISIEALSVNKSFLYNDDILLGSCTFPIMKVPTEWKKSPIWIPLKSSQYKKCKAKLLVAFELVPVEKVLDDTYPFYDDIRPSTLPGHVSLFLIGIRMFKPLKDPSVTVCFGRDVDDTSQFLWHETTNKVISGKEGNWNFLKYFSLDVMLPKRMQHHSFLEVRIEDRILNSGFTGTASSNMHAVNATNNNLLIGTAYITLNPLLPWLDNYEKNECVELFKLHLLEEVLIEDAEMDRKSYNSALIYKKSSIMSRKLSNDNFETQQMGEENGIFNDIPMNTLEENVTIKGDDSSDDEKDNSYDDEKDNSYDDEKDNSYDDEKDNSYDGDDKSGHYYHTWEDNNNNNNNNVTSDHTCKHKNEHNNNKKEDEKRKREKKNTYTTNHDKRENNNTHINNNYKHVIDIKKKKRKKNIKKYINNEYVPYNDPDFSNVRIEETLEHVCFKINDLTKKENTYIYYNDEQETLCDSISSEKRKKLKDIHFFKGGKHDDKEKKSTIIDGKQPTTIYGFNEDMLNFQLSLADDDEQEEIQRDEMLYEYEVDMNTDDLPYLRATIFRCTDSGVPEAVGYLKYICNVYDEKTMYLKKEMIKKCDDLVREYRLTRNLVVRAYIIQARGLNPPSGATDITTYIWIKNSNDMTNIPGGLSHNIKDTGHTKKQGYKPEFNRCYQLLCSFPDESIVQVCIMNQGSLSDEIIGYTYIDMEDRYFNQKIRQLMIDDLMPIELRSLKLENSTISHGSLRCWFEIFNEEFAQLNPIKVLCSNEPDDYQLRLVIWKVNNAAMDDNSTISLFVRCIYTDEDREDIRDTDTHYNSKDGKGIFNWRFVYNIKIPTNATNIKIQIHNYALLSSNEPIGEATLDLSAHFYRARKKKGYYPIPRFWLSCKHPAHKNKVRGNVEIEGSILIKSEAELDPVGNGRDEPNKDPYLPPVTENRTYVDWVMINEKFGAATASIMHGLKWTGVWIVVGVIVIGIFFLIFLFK
UniProt Q8I5D0: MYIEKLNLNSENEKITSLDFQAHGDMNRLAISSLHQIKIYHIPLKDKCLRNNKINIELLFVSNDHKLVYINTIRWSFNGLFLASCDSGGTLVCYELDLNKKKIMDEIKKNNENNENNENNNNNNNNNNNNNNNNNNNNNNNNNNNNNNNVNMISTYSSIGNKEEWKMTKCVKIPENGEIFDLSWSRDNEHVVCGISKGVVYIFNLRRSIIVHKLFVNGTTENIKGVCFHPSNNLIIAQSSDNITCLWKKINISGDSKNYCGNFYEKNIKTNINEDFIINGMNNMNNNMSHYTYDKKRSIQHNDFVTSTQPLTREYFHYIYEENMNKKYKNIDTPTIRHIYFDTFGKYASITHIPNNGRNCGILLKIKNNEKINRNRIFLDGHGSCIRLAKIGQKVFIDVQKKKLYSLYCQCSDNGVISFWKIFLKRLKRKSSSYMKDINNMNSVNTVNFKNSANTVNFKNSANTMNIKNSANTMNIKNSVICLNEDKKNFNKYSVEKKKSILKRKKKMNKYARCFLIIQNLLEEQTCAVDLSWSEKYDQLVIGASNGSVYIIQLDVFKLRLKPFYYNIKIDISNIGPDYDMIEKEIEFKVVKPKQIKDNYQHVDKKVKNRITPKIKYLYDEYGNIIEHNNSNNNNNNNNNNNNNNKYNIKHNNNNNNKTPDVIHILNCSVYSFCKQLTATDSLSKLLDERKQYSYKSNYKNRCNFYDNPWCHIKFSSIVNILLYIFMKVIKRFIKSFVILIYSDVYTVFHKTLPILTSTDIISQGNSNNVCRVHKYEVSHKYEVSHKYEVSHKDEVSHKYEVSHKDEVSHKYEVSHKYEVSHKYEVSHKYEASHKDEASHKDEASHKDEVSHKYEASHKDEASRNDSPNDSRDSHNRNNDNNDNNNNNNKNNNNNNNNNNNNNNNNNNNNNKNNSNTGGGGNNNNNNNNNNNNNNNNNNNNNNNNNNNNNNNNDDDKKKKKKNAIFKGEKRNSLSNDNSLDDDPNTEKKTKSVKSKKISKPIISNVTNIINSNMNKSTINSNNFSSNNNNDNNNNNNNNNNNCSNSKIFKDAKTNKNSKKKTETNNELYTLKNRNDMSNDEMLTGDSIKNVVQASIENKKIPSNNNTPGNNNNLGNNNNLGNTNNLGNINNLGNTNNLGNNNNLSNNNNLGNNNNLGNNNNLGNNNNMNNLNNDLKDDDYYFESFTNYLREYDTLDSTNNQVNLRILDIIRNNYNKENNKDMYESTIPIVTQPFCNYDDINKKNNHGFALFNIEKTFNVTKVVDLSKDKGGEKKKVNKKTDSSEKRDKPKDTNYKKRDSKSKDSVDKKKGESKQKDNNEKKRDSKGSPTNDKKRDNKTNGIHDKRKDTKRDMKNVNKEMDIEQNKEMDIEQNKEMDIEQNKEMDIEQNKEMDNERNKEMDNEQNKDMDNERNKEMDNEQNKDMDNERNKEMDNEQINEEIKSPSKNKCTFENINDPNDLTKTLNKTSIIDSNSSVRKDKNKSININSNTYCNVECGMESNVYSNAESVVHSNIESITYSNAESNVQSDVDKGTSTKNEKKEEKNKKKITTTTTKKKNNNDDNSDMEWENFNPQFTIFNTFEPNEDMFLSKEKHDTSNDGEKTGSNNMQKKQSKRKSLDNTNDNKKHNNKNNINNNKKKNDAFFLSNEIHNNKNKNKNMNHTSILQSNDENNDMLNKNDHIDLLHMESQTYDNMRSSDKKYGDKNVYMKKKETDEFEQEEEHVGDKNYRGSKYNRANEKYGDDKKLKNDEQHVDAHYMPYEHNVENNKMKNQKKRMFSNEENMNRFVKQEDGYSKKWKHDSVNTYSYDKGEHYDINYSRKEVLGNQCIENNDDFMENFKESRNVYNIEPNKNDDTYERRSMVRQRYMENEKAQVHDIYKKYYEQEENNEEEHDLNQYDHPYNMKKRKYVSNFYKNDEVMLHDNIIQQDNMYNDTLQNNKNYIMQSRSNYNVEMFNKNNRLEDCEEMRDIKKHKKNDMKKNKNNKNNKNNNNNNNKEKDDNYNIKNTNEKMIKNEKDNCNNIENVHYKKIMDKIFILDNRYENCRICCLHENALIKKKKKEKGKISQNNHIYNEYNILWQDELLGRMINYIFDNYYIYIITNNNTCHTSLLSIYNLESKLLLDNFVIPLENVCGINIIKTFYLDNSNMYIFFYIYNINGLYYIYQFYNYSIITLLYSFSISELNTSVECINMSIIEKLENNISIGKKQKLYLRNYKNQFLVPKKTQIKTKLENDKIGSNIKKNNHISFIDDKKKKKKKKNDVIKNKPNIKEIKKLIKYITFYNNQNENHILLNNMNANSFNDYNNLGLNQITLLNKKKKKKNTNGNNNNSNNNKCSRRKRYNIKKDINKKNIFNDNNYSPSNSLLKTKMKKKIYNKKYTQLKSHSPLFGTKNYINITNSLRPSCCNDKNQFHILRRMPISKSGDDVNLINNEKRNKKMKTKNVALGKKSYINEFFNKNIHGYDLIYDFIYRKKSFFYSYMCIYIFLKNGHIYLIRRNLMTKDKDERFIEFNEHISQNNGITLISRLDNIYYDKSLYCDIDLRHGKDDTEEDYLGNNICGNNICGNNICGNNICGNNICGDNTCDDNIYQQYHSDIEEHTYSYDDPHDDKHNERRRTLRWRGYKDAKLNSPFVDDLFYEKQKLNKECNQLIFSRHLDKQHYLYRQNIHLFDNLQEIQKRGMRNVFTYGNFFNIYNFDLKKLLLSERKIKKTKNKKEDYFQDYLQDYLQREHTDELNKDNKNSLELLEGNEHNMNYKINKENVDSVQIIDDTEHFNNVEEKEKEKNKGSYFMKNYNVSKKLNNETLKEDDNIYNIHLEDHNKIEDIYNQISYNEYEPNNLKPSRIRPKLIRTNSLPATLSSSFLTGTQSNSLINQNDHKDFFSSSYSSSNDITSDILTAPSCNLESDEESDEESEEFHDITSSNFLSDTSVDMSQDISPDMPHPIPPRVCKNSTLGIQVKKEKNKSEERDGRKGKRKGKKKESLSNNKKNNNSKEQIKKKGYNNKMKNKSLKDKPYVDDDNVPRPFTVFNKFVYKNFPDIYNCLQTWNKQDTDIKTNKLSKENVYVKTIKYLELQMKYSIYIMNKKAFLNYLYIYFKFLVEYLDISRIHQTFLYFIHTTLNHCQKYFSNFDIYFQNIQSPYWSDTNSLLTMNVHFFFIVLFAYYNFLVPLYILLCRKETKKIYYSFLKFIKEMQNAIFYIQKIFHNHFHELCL

What follows are molecules tested against PfGet3-BirA*-HA (P. falciparum 3D7) (UniProt Q8I1T8) (assay: proximity labelling; BioID: transgenic P. falciparum 3D7 expressing PfGet3-BirA*-HA grown 48 h with 50 μg/ml D-biotin (BioID) or without (control); extract in 50 mM Tris.HCl pH 7.5, 500 mM NaCl, 1% Triton-X-100; biotinylated proteins purified on StrepTactin XT; read by LC-MS/MS or western blot (anti-HA, anti-PfGet3)).

binding	Molecule
binds	Ferlin-like protein, putative (PF3D7_0806300) (from UniProt C0H4S2 1-1704)
binds	native untagged PfGet3 (from UniProt Q8I1T8)

Molecule	binding
WD repeat-containing protein, putative (PF3D7_1228800) (from UniProt Q8I5D0 1-3209)	binds

Molecular target: PfGet3-BirA*-HA (P. falciparum 3D7) (UniProt Q8I1T8)
Assay: as above
Remark: another data set of the same source

binding	Molecule
binds	Protein transport protein BOS1, putative (PF3D7_1111300), endogenous (protein, UniProt Q8IIP9 1-289) MNKKYEPILDNELLSSNNENENFVNSKKKDNENDKIQDTSLNNIYGKIVKIRKELEKSYNLFYSYNLIVSNNKEHDPNSPYNNVYARSDIININNNTKNNLTLNKINALTNSFYMNVQTLKNTYSFINTNNVNNKIINNDNIIWERRIETLSNEANSYIKTLDNIYKTNLKQSEMKNNKKSNYTKSNKRHDGDDAINYLHKENEILKQVEDHLNIFHVQGMNTLNMLRKQNKFLKNVRKKVIDMYNYVGLSSSLVDTIKKAHKQNLIIVIVGIILSLIFFYVIYSYFKR
binds	Elongator complex protein 3, putative (PF3D7_1227800) (protein, UniProt Q8I5E0 1-1092) MIKFKIGRSNKKYEKKSNIDNNEENIKESCDDNILNDQVATDLNSEELNEKNYINEILDESSEDDGNVINSSYEENKKTKNKEESYYYINDAIKRNYPLEYEDNKIYPKVYCYEPTNFENFKKKIKNKNELRHYECYSSTMNEFFYKYNENYYDDILKNESFKKFAEELWSNRSNIKTDQQYQDLCVQLRKKYKISPSKHQISVALQHHYLQSLDDDKKDMESIIELQKNSDHISDINDMDNIIAVDNTNRVDNMNKHDSSHVDETNAPSEEDEFMINKKGKDVKFVLENVNKMIITKEMKNYKDLDKESVHFLQINKRKGVRSNSGVLVVTIITHPHKFSCKYDCHYCPNEPNQPRSYLSTEPAILRANQNNFDVICQFFNRTTTLVNNGHVADKIEVLVLGGTWSCYDIAYQEEFIRDVYYAANIYPVLKDRRKKLTLKEEQEINEKSNCRIIGLTLETRPDQINKDELLRLRYYGCTRVQLGIQHIDDVILKKVNRQCTLKDCIRAIYLLKENGFKVDIHLMPDLPYSDVYKDIHMFKYVLSSTDLQADQWKIYPCEITPFTKIEKWYNNNEYKPYFETNKNLLISVILLVKKSIHPWIRLNRVIRDIPNPSIIAGNNITNMRQLIANEMNIRNIFCQCIRCKEVKNQEIEKKSDSIFLRIYKYPTLGGDEYFITFQGRKKVVNHHGKKNKKNKKSKTSKKDNLNQKYNDEQMKEKDNNKKIQNKNNVNNDNNSNNNYYSDSNGHLSSTSNVLENMETFFNQHETENNQINHSHNTQYEHSGASQNNINSEQSGASQKNKNSEQSGANPENVHNTNVPQNKMDTEIPIDHNIYEDYDNEYSLLGFLRLRLRKKNNYCDDRPFKCLENSALIRELHVYGSLLKHDDFKDELNFIQHKGLGKCLVLVAEIISYFYNYKKVSIIAGVGTREYYKKLGYTKEETYVTKILKREEIYKNYLLNIDRIGKTILIHEYNLKHCLYLMHKEIPEPSKYKRTEITNLNSYINENILHSSDMKNYLVHKKKCTTSSINVQRLLETETNQIVNILWNQFNKWSLDFLIKNRLIFNVSTIVFFSSTFLFTIQFFKKRNINT
binds	PfGet2 (PF3D7_0215600), endogenous (protein, UniProt O96235 1-403) MDKNTLKRRSRLLQKNEARMSMLLGRNLDDEISKEKKESNKNDKHKKNDQHKKNDKSNQNGEDNQNGEDNQNDESNQNDEHKKNDEHKKNDEHNQNDEHNQNDEHNQNDEHNQNDEHNQNDEHNQNDEHNQNDEHNQNDESNQNDKNRKEIPPKEEKDKENNPSVVMENNNNIRKDQDNKTSEHKSSTNIYNKDKNNDYNKLLDKDDNNNNNKNINKNDENDFTSINNDIPNKNKITSQFIITKHEKLHFIILIILCIFISIFKVYYNNKNNLIYKKKKKGNNNLNIVQMIFFNFINSPNFFFSFSVFYNILFLLIIMLMYIKKNNITRKRIQDFFVNMKNKLNNQNEHVFYFINNAVLCILFMGRIFKSYIISMFLINLFHDILHNYLIGVSMLQPQKVVLL
binds	PfGet4 (PF3D7_1438600), endogenous (protein, UniProt Q8IL82 1-277) MKKFKFSKEKLAKEKIENGLHYEAHQLIKSIINRKLQKNQISNCISVIFYFSLKFATAEQYVLLCDLMYQCCLILTQHDIEFNLEYANKIIEIFQKCPPNSTEEKYKFMNKSILWSKSEENVYGYLEFHKVIGYAYFEDKQYSLAHNHFIYLDDNDILYEIICLWRKEAYPSESHFFVLRTILCLLVLDKFDQALNLINMFETNLNRQDVPLPIQLAYLITSSCIYKSLALYEDVKYKYRLILNYDPDFQKYINIIDAAVFNKKKHNLFSMFQNIFA
binds	Guanine nucleotide-exchange factor SEC12 (PF3D7_1116400) (protein, UniProt Q8IIK2 1-485) MNEMKVSYLNYPIYGIGSNKDYVVTSGGGGGKNYGIEDMLDINIFNEKEKKLEVVWSTTEQRGVVDSIIYVEKYNIWLGSVKNECILFEINEETGPNILLTFVTDFNERNARQVVVKFSSKDDLILTGGEDKTLRLWKLNFVKREKENKDDIKGDNKKGNDNKTNEDNKKDNDKKTNEDKKKDNDNKTNEDKKKDNDNKTDDDNYIAVNNNLYLDKNKSVEHLGDFVGHDDSIKDCDISFDEKIVCTCSSDHSLKIWDTNSFVNLHTEQMKSPQNKNDKLNFRCCKFLNHSNSFKDFTYTLLTTAYTPRGSSYLIIWKVYYNDKKEQFTFTKDKFIWINDRPCCNIAVSTNQKFIALGFSTGALKIYNSKFYLLAHYKKHELPITAMCFIKDDNYLLSAGADYTISTLHINSFMFRYLRKFGRFIIYFLLLFFISIILLDSFNVGYDLRISSLFHNKAYTNITKKKRNYNVDPKKNKVIMDMDEL
binds	Deoxyhypusine synthase (PF3D7_1412600) (protein, UniProt Q8ILW8 1-496) MVDHVSFKEVNKIRSDDECDADSHNEGDNIEDAKASVFVKSSLIPEKTDVVKGLNFDKEVDLHEFINNYKYMGFQATNLGISIDEINKMIYYKYKDENIKSEPNNENNLNCNNVSEDLNKDQENHLYHYEKKKKSCIIWLSFTSNMISSGLREIFVYLAKNKFIDVVVTTAGGIEEDIIKCFSNTYIGDFNLNGKKLRKKGWNRIGNLIVPNDNYCKFEDWLQPILNKMLHEQNEKNEQMFLKKLEKRKKKYNNNKNKNDNNNDNDNVWGNEKNDQNQNQYNQGQESFKKDSNIYTNDVSNKKNHINNYINNYDSDSDDQCDMYYLSPSEFINTLGKEINDESSLIYWCYKNDIPIFCPGLTDGSLGDNLFFHNYGKKIKNNLILDIVKDIKKINSLAMNCEKSGIIILGGGLPKHHVCNANLMRNGADFAVYVNTASEYDGSDSGANTTEALSWGKIKYGQTNNHVKVFGDATILFPLMVLNSFYLYDQKRKKDM
